Test results from paper PMC7072349.
These are yes or no findings as the source states them, for the method shown. Binding seen in cells or lysates may run through a third protein. Some results given as binding are weak or reduced against the parent protein; the word gives no strength. Tags and fused reporters may be left off the sequences shown.

Molecular target: T1, WT panx1a-dTomato-His (Danio rerio (zebrafish)) (UniProt Q7ZUN0)
T1 sequence: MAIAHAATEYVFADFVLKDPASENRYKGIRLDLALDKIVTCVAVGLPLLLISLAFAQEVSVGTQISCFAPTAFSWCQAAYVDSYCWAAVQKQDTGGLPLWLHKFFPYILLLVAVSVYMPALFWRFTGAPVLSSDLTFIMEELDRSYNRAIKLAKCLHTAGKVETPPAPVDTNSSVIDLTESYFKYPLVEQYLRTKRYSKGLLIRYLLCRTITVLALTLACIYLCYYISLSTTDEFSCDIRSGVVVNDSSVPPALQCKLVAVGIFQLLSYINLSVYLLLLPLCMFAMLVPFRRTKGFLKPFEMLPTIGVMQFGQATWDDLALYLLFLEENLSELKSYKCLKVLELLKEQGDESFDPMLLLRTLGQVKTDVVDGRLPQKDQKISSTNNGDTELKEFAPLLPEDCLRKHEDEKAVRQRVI
Assay: pull-down; His60 Ni gravity column; native lysates of double-transfected Neuro 2a cells loaded and rocked at 4 °C for 1 h; His-tagged dTomato fusion held on the column; eluates blotted with anti-GFP and anti-His

binding: binds
B1: WT panx1a-EYFP (Danio rerio pannexin 1a, wild type, EYFP-tagged) (protein, UniProt Q7ZUN0 1-417)
chain: MAIAHAATEYVFADFVLKDPASENRYKGIRLDLALDKIVTCVAVGLPLLLISLAFAQEVSVGTQISCFAPTAFSWCQAAYVDSYCWAAVQKQDTGGLPLWLHKFFPYILLLVAVSVYMPALFWRFTGAPVLSSDLTFIMEELDRSYNRAIKLAKCLHTAGKVETPPAPVDTNSSVIDLTESYFKYPLVEQYLRTKRYSKGLLIRYLLCRTITVLALTLACIYLCYYISLSTTDEFSCDIRSGVVVNDSSVPPALQCKLVAVGIFQLLSYINLSVYLLLLPLCMFAMLVPFRRTKGFLKPFEMLPTIGVMQFGQATWDDLALYLLFLEENLSELKSYKCLKVLELLKEQGDESFDPMLLLRTLGQVKTDVVDGRLPQKDQKISSTNNGDTELKEFAPLLPEDCLRKHEDEKAVRQRVI
